Data as given in the supplement of paper PMC8728848.
This is one part of the list.

Columns and labels:
Assay in all cases: glycan array binding signal (z-score within array); higher = stronger binding
Conditions in all cases: glycan notation: IUPAC condensed, linker removed
Fuc(a1-2)Gal = molecular target: Fuc(a1-2)Gal
Procedure, shortened: (§1)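 The binding signal is a Z-score computed within each array and averaged over linkers. Arrays of the same protein sequence at different concentrations or buffers were also averaged together. Data originate from 3228 arrays in the Consortium for Functional Glycomics database, kept only where the protein sequence was available.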

Fuc(a1-2)Gal(b1-3)GalNAc = molecular target: Fuc(a1-2)Gal(b1-3)GalNAc
Procedure, shortened: as §1

[1] = molecular target: Fuc(a1-2)Gal(b1-3)GalNAc(a1-3)[Fuc(a1-2)]Gal(b1-4)Glc
Procedure, shortened: as §1

[2] = molecular target: Fuc(a1-2)Gal(b1-3)GalNAc(a1-3)[Fuc(a1-2)]Gal(b1-4)GlcNAc
Procedure, shortened: as §1

[3] = molecular target: Fuc(a1-2)Gal(b1-3)GalNAc(b1-3)Gal
Procedure, shortened: as §1

[4] = molecular target: Fuc(a1-2)Gal(b1-3)GalNAc(b1-3)Gal(a1-4)Gal(b1-4)Glc
Procedure, shortened: as §1

[5] = molecular target: Fuc(a1-2)Gal(b1-3)GalNAc(b1-4)[Neu5Ac(a2-3)]Gal(b1-4)Glc
Procedure, shortened: as §1

Fuc(a1-2)Gal(b1-3)GlcNAc = molecular target: Fuc(a1-2)Gal(b1-3)GlcNAc
Procedure, shortened: as §1

[6] = molecular target: Fuc(a1-2)Gal(b1-3)GlcNAc(b1-2)Man(a1-3)[Fuc(a1-2)Gal(b1-3)GlcNAc(b1-2)Man(a1-6)]Man(b1-4)GlcNAc(b1-4)GlcNAc
Procedure, shortened: as §1

[7] = molecular target: Fuc(a1-2)Gal(b1-3)GlcNAc(b1-2)Man(a1-3)[Fuc(a1-2)Gal(b1-3)GlcNAc(b1-2)Man(a1-6)]Man(b1-4)GlcNAc(b1-4)[Fuc(a1-6)]GlcNAc
Procedure, shortened: as §1

[8] = molecular target: Fuc(a1-2)Gal(b1-3)GlcNAc(b1-3)Gal(b1-4)Glc
Procedure, shortened: as §1

[9] = molecular target: Fuc(a1-2)Gal(b1-3)GlcNAc(b1-3)GalNAc
Procedure, shortened: as §1

[10] = molecular target: Fuc(a1-2)Gal(b1-3)GlcNAc(b1-3)[Fuc(a1-2)Gal(b1-3)GlcNAc(b1-6)]GalNAc
Procedure, shortened: as §1

[11] = molecular target: Fuc(a1-2)Gal(b1-3)GlcNAc(b1-3)[Gal(b1-4)GlcNAc(b1-6)]Gal(b1-4)Glc
Procedure, shortened: as §1

[12] = molecular target: Fuc(a1-2)Gal(b1-3)GlcNAc(b1-3)[Neu5Ac(a2-6)Gal(b1-4)GlcNAc(b1-6)]Gal(b1-4)Glc
Procedure, shortened: as §1

[13] = molecular target: Fuc(a1-2)Gal(b1-3)GlcNAc6S
Procedure, shortened: as §1

[14] = molecular target: Fuc(a1-2)Gal(b1-3)[Fuc(a1-4)]GlcNAc
Procedure, shortened: as §1

[15] = molecular target: Fuc(a1-2)Gal(b1-3)[Fuc(a1-4)]GlcNAc(b1-2)Man(a1-3)[Fuc(a1-2)Gal(b1-3)[Fuc(a1-4)]GlcNAc(b1-2)Man(a1-3)]Man(b1-4)GlcNAc(b1-4)GlcNAc
Procedure, shortened: as §1

[16] = molecular target: Fuc(a1-2)Gal(b1-3)[Fuc(a1-4)]GlcNAc(b1-2)Man(a1-3)[Fuc(a1-2)Gal(b1-3)[Fuc(a1-4)]GlcNAc(b1-2)Man(a1-6)]Man(b1-4)GlcNAc(b1-4)[Fuc(a1-6)]GlcNAc(b1-4)[Fuc(a1-6)]GlcNAc
Procedure, shortened: as §1

[17] = molecular target: Fuc(a1-2)Gal(b1-3)[Fuc(a1-4)]GlcNAc(b1-3)[Fuc(a1-3)[Gal(b1-4)]GlcNAc(b1-6)]Gal(b1-4)Glc
Procedure, shortened: as §1

[18] = molecular target: Fuc(a1-2)Gal(b1-3)[Fuc(a1-4)]GlcNAc(b1-3)[Gal(b1-4)GlcNAc(b1-6)]Gal(b1-4)Glc
Procedure, shortened: as §1

[19] = molecular target: Fuc(a1-2)Gal(b1-4)Fuc(a1-3)]GlcNAc(b1-2)Man(a1-3)[Fuc(a1-2)Gal(b1-4)[Fuc(a1-3)]GlcNAc(b1-2)Man(a1-6)]Man(b1-4)GlcNAc(b1-4)GlcNAc
Procedure, shortened: as §1

Fuc(a1-2)Gal(b1-4)Glc = molecular target: Fuc(a1-2)Gal(b1-4)Glc
Procedure, shortened: as §1

Fuc(a1-2)Gal(b1-4)Glc6S = molecular target: Fuc(a1-2)Gal(b1-4)Glc6S
Procedure, shortened: as §1

Fuc(a1-2)Gal(b1-4)GlcNAc = molecular target: Fuc(a1-2)Gal(b1-4)GlcNAc
Procedure, shortened: as §1

[20] = molecular target: Fuc(a1-2)Gal(b1-4)GlcNAc(b1-2)Man
Procedure, shortened: as §1

[21] = molecular target: Fuc(a1-2)Gal(b1-4)GlcNAc(b1-2)Man(a1-3)[Fuc(a1-2)Gal(b1-4)GlcNAc(b1-2)Man(a1-6)]Man(b1-4)GlcNAc(b1-4)GlcNAc
Procedure, shortened: as §1

[22] = molecular target: Fuc(a1-2)Gal(b1-4)GlcNAc(b1-2)Man(a1-3)[Fuc(a1-2)Gal(b1-4)GlcNAc(b1-2)Man(a1-6)]Man(b1-4)GlcNAc(b1-4)[Fuc(a1-6)]GlcNAc
Procedure, shortened: as §1

[23] = molecular target: Fuc(a1-2)Gal(b1-4)GlcNAc(b1-2)[Fuc(a1-2)Gal(b1-4)GlcNAc(b1-4)]Man(a1-3)[Fuc(a1-2)Gal(b1-4)GlcNAc(b1-2)Man(a1-6)]Man(b1-4)GlcNAc(b1-4)GlcNAc
Procedure, shortened: as §1

[24] = molecular target: Fuc(a1-2)Gal(b1-4)GlcNAc(b1-3)Gal(b1-4)GlcNAc
Procedure, shortened: as §1

B1: HA-61200 (Pseudomonas aeruginosa), Q02SP8_PSEAB (protein)
chain: MNKCYALVWNVSQGCWNVVSEGSRRRGKPAGAKAAIASVLALLGATALAPAYALPSGGTVVGGSANGEIHLSGGNSLSVNQKVDKLIANWDSFSVAAGERVIFNQPSSSSIALNRVIGTKASDIQGRIDANGQVFLVNPNGVLFGRGAQVNVGGLVASTLDITDAEFNGNSSRYRFTGPSTNGVLNHGGAITAAEGGSIALLGAQVDNRGTVLAQMGGVGLGAGSDLTLNFDGNKLLDIRVDAGVANALASNGGLLKADGGRVLMAARTANALLNTVVNSQGAIEARSLRGKNGRIVLDG
glycan array binding signal (z-score) (Fuc(a1-2)Gal): 0.052 | glycan array binding signal (z-score) (Fuc(a1-2)Gal(b1-3)GalNAc): -0.293 | glycan array binding signal (z-score) [1]: -0.947 | glycan array binding signal (z-score) [2]: -0.993 | glycan array binding signal (z-score) [3]: -0.747 | glycan array binding signal (z-score) [4]: -0.486 | glycan array binding signal (z-score) [5]: -0.288 | glycan array binding signal (z-score) (Fuc(a1-2)Gal(b1-3)GlcNAc): -1.2 | glycan array binding signal (z-score) [6]: 4.52 | glycan array binding signal (z-score) [7]: -0.53 | glycan array binding signal (z-score) [8]: -0.622 | glycan array binding signal (z-score) [9]: -0.475 | glycan array binding signal (z-score) [10]: 0.665 | glycan array binding signal (z-score) [11]: 0.014 | glycan array binding signal (z-score) [12]: -0.553 | glycan array binding signal (z-score) [13]: -0.547 | glycan array binding signal (z-score) [14]: -0.114 | glycan array binding signal (z-score) [15]: 1.5 | glycan array binding signal (z-score) [16]: -0.076 | glycan array binding signal (z-score) [17]: -0.35 | glycan array binding signal (z-score) [18]: 0.396 | glycan array binding signal (z-score) [19]: 2.27 | glycan array binding signal (z-score) (Fuc(a1-2)Gal(b1-4)Glc): 1.09 | glycan array binding signal (z-score) (Fuc(a1-2)Gal(b1-4)Glc6S): 0.498 | glycan array binding signal (z-score) (Fuc(a1-2)Gal(b1-4)GlcNAc): -0.275 | glycan array binding signal (z-score) [20]: 0.447 | glycan array binding signal (z-score) [21]: -0.51 | glycan array binding signal (z-score) [22]: 0.288 | glycan array binding signal (z-score) [23]: 0.575 | glycan array binding signal (z-score) [24]: 0.177
